{
  "sequences": {"note": "Sequences of proteins named here, by UniProt entry; tags and fusion partners are left off.", "UniProt Q7TQN4": "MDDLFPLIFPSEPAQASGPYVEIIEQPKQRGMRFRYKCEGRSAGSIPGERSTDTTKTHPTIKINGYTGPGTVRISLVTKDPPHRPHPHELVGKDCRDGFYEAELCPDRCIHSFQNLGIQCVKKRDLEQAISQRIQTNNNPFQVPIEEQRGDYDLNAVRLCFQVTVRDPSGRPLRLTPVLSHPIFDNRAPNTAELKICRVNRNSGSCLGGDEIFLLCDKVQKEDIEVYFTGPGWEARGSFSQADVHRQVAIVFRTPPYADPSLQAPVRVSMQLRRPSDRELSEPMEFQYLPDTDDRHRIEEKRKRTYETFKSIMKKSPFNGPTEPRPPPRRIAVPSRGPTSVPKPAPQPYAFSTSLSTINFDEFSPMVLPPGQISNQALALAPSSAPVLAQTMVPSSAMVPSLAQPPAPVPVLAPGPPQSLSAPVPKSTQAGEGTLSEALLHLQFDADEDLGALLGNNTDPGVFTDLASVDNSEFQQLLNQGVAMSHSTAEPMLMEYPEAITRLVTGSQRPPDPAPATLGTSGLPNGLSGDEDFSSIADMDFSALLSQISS", "UniProt Q63746": "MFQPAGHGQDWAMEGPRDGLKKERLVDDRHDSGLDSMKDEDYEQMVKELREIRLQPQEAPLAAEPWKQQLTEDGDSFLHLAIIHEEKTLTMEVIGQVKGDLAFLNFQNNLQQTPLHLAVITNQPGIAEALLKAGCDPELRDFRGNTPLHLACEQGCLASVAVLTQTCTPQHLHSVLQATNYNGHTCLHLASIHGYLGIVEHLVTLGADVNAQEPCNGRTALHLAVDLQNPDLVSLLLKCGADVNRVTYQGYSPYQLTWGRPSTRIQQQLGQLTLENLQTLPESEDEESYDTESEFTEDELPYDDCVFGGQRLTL"},
  "source": "paper PMC3164132",
  "target": "NFκB p65 (rat (endogenous in RASMCs)) (UniProt Q7TQN4)",
  "assay": "co-IP; IP with anti-NFκB p65 (Abcam) from 600 µg RASMC lysate on protein A/G-plus beads, overnight at 4°C, immunoblot for IκBα; Co-IP buffer 120 mM NaCl, 20 mM Tris pH 7.5, 2 mM EDTA, 1% Triton-X100, 1 mM sodium vanadate, 10% glycerol; cells pretreated with GlcN (5 mM), PUGNAc (10^-4 M) or vehicle for 1 hr, then TNF-α (10 ng/mL) or vehicle for 1 hr",
  "note": "These are yes or no findings as the source states them, for the method shown. Binding seen in cells or lysates may run through a third protein. Some entries that bind do so weakly or less than the wild type.",
  "data": [
    {"substance": "IκBα (from UniProt Q63746 1-314)", "values": [
      {"measurement": "binding", "value": "binds"}
    ]}
  ]
}
